The reference is the same well before dosing, and untreated signal decays as well.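 Fibroblast labels name human fibroblasts: mostly primary ones from tissues such as uterus (C12385, HUF), lung (H6013), bone (Hs27A), adrenal (HADF) and skin (WS1), plus mammary HMF and breast cancer-associated Hs343T. The cancer cells are basal-like or mesenchymal-like triple-negative breast cancer lines. The paper calls a changed response a hit when it shifts by more than 3x the replicate standard deviation. The tissue of the other fibroblasts is not given here.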
Tested on: BT20
Assay: relative JC-1 red fluorescence (viability) vs pre-drug, coculture with fibroblast (fraction); higher = more viable cancer cells
Method: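 JC-1 labelled TNBC cells cocultured 1:1 (1,500 cells each) with CellTrace Violet stained primary or stromal fibroblasts in 384-well plates in FluoroBrite medium, treated with one of 42 anticancer drugs at 0.1, 1, 10 or 100 uM. JC-1 red fluorescence (mitochondrial integrity in cancer cells only) was read by plate reader every 8 h for 72 h. Values are normalised to each well's pre-drug value. The stock of one drug was tenfold lower, so its dose labels may be too high.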

COc1cc([C@@H]2c3cc4c(cc3[C@@H](O[C@@H]3O[C@@H]5CO[C@@H](c6cccs6)O[C@H]5[C@H](O)[C@H]3O)[C@H]3COC(=O)[C@H]23)OCO4)cc(OC)c1O [Teniposide]
relative JC-1 red fluorescence
Conditions | 8 h | 16 h | 24 h | 32 h | 40 h | 48 h | 56 h | 64 h | 72 h
0.1 µM, coculture fibroblast: C12385 | 0.866 | 0.852 | 0.851 | 0.806 | 0.761 | 0.751 | 0.734 | 0.737 | 0.738
0.1 µM, coculture fibroblast: H6013 | 0.926 | 0.886 | 0.8486 | 0.801 | 0.757 | 0.74 | 0.736 | 0.713 | 0.706
0.1 µM, coculture fibroblast: H6019 | 0.8606 | 0.8069 | 0.808 | 0.75 | 0.699 | 0.683 | 0.651 | 0.62 | 0.606
0.1 µM, coculture fibroblast: H6076 | 0.944 | 0.903 | 0.877 | 0.878 | 0.875 | 0.875 | 0.906 | 0.92 | 0.931
0.1 µM, coculture fibroblast: H6231 | 0.855 | 0.91 | 0.824 | 0.772 | 0.722 | 0.677 | 0.635 | 0.612 | 0.591
0.1 µM, coculture fibroblast: HADF | 0.97 | 0.88 | 0.7957 | 0.743 | 0.704 | 0.663 | 0.644 | 0.6308 | 0.6066
0.1 µM, coculture fibroblast: HCFa | 0.9236 | 0.904 | 0.8623 | 0.8 | 0.763 | 0.7404 | 0.712 | 0.6908 | 0.649
0.1 µM, coculture fibroblast: HCPF | 0.935 | 0.939 | 0.8816 | 0.84 | 0.804 | 0.762 | 0.718 | 0.709 | 0.68
0.1 µM, coculture fibroblast: HHSteC | 0.9269 | 0.875 | 0.854 | 0.782 | 0.745 | 0.705 | 0.691 | 0.663 | 0.627
0.1 µM, coculture fibroblast: HMF | 0.8888 | 0.884 | 0.7984 | 0.735 | 0.703 | 0.655 | 0.627 | 0.605 | 0.577
0.1 µM, coculture fibroblast: HPFa | 0.889 | 0.8698 | 0.889 | 0.8091 | 0.793 | 0.752 | 0.734 | 0.703 | 0.676
0.1 µM, coculture fibroblast: HUF | 0.8902 | 0.812 | 0.783 | 0.695 | 0.655 | 0.617 | 0.608 | 0.595 | 0.581
0.1 µM, coculture fibroblast: Hs5 | 0.851 | 0.929 | 0.867 | 0.815 | 0.779 | 0.754 | 0.739 | 0.719 | 0.713
0.1 µM, coculture fibroblast: Hs27A | 0.842 | 0.97912 | 0.848 | 0.912 | 0.887 | 0.879 | 0.884 | 0.868 | 0.839
0.1 µM, coculture fibroblast: Hs343T | 0.827 | 0.899 | 0.8 | 0.747 | 0.705 | 0.669 | 0.627 | 0.608 | 0.587
0.1 µM, coculture fibroblast: WS1 | 0.8544 | 0.803 | 0.797 | 0.738 | 0.688 | 0.677 | 0.66 | 0.649 | 0.658
1 µM, coculture fibroblast: C12385 | 0.8913 | 0.84 | 0.813 | 0.751 | 0.679 | 0.654 | 0.628 | 0.633 | 0.627
1 µM, coculture fibroblast: H6013 | 0.936 | 0.899 | 0.884 | 0.8261 | 0.79 | 0.771 | 0.779 | 0.766 | 0.751
1 µM, coculture fibroblast: H6019 | 0.8461 | 0.772 | 0.759 | 0.666 | 0.602 | 0.586 | 0.554 | 0.54 | 0.529
1 µM, coculture fibroblast: H6076 | 0.9671 | 0.8909 | 0.813 | 0.756 | 0.729 | 0.697 | 0.706 | 0.699 | 0.683
1 µM, coculture fibroblast: H6231 | 0.846 | 0.872 | 0.776 | 0.71341 | 0.6613 | 0.607 | 0.576 | 0.56 | 0.55
1 µM, coculture fibroblast: HADF | 0.9678 | 0.925 | 0.878 | 0.799 | 0.748 | 0.695 | 0.686 | 0.668 | 0.639
1 µM, coculture fibroblast: HCFa | 0.936 | 0.887 | 0.846 | 0.763 | 0.705 | 0.659 | 0.6234 | 0.584 | 0.544
1 µM, coculture fibroblast: HCPF | 0.9918 | 0.906 | 0.8504 | 0.787 | 0.7509 | 0.713 | 0.6876 | 0.673 | 0.66
1 µM, coculture fibroblast: HHSteC | 0.887 | 0.836 | 0.87 | 0.833 | 0.8116 | 0.829 | 0.871 | 0.786 | 0.786
1 µM, coculture fibroblast: HMF | 0.9244 | 0.866 | 0.77207 | 0.6947 | 0.652 | 0.608 | 0.581 | 0.561 | 0.535
1 µM, coculture fibroblast: HPFa | 0.976 | 0.966 | 0.898 | 0.906 | 0.885 | 0.835 | 0.826 | 0.81 | 0.78
1 µM, coculture fibroblast: HUF | 0.886 | 0.783 | 0.73176 | 0.633 | 0.5806 | 0.549 | 0.537 | 0.522 | 0.51
1 µM, coculture fibroblast: Hs5 | 0.938 | 0.925 | 0.856 | 0.806 | 0.777 | 0.746 | 0.727 | 0.716 | 0.704
1 µM, coculture fibroblast: Hs27A | 0.837 | 0.823 | 0.917 | 0.949 | 0.937 | 0.933 | 0.942 | 0.945 | 0.922
1 µM, coculture fibroblast: Hs343T | 0.935 | 0.875 | 0.778 | 0.7061 | 0.651 | 0.5904 | 0.5525 | 0.526 | 0.508
1 µM, coculture fibroblast: WS1 | 0.834 | 0.741 | 0.69 | 0.593 | 0.515 | 0.479 | 0.464 | 0.452 | 0.451

Reference: the supplement of paper PMC6078165
